Experimental data published in PMC12889043.
These are yes or no findings as the source states them, for the method shown. Binding seen in cells or lysates may run through a third protein. A yes stands for co-enrichment or nearness to the bait. Other partners may have been found. Sequences can lack the tags named with a protein.

Amino acid sequences for entries named in this document (tags omitted).
UniProt P19474: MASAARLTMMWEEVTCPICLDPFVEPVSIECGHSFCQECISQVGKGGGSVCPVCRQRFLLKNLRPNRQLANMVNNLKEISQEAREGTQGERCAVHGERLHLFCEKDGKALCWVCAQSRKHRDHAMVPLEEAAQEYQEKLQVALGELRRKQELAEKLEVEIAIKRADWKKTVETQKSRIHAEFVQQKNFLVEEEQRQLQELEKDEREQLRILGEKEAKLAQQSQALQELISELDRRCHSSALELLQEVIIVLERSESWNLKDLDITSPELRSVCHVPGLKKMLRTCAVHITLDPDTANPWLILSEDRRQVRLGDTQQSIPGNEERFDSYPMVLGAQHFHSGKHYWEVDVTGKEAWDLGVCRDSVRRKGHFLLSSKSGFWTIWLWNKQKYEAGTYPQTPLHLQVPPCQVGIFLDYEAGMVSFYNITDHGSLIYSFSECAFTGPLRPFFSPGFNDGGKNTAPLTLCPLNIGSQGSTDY

Molecular target: T1, Flag-tagged full-length human RND3 (pcDNA3.1-Flag-hRND3) (human) (UniProt P61587)
T1 sequence: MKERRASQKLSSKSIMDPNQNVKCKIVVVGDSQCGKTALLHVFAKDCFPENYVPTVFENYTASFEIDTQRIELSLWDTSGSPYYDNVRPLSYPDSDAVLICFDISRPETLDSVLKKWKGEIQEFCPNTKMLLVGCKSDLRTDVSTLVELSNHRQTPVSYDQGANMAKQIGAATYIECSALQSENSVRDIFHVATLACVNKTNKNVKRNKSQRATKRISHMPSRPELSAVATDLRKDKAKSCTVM
Assay: affinity purification with mass spectrometry; HEK293T transfected with Flag-hRND3 (2 μg), 24 h; immunoprecipitation from lysate, interacting proteins analysed by mass spectrometry

- binding: binds
Substance: endogenous TRIM21 (from UniProt P19474 1-475)
